PubChem BioAssay AID1259308, NCATS – 2017
The whole screen tested about 59,000 reagents; this is an unselected part. About 1,510 of them (2.6%) were called active. 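Calls use total luciferase alone and ignore viability, so some active siRNAs may act by altering cell number.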 Unmarked entries are inactive. The numbers tell different reagents against one gene apart. Further read-outs or replicates are left out here. Reagent sequences are not shown.

Purpose: 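Genes whose loss raises luciferase production in HEK293 cells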 (primary screen)
Cell system: human HEK293 embryonic kidney cells stably expressing firefly luciferase (HEK-CMV-Luc2-Hygro)
Reagents: single siRNA against human genes, 0.8 pmol siRNA per well
Timing: 72 h
Measurement: 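Reporter luminescence and viable-cell signal on separate replicate plates, given as percent of non-targeting control and median/MAD z-scores, plus per-cell luciferase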
Reading the numbers: total luciferase, z-score: higher = more reporter protein produced
Active means: 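An siRNA counts as active if its total luciferase robust z-score exceeds 3; genes with two or more such siRNAs out of three were retested with fresh siRNAs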
Meaning of the calls: active = raised luciferase; inactive = no rise

total luciferase, z-score, by gene symbol and reagent
PRR23A (GeneID 729627): #1 0.0203; #2 0.131; #3 0.213
NBPF15 (GeneID 284565): #1 -1.2; #2 2.14; #3 0.699
AKR1B10 (GeneID 57016): #1 0.204; #2 -0.0943; #3 -0.0706
IKBKB (GeneID 3551): #1 -0.127; #2 1.13; #3 0.52
ZDHHC1 (GeneID 29800): #1 -1.27; #2 -0.289; #3 2.31
FAM220BP (GeneID 647044): #1 0.585; #2 0.335; #3 0.297
POU3F4 (GeneID 5456): #1 2.53; #2 0.0802; #3 0.0463
AKR1D1 (GeneID 6718): #1 0.408; #2 -0.0351; #3 1.58
ULK4P3 (GeneID 89837): #1 1.27; #2 0.571; #3 -0.0362
IFITM3 (GeneID 10410): #1 1.16; #2 -0.599; #3 1.01
HMGN2P16 (GeneID 728234): #1 1.55; #2 -1.36; #3 0.235
DNAJC6 (GeneID 9829): #1 -1.78; #2 0.688; #3 -1.37
ZNF280D (GeneID 54816): #1 0.279; #2 -0.0419; #3 -0.963
